The values that follow come from article PMC11476688.

Results are given in words; binding and its absence hold for the method and conditions named. Binding seen in cells or lysates may run through a third protein. Binding calls can cover weak binding; strength is not graded here. Where a sequence is shown, tags or fusion partners need not be part of it.

In the test the target is T1, EGFP-TRIM56 (UniProt Q9BRZ2).
T1 sequence: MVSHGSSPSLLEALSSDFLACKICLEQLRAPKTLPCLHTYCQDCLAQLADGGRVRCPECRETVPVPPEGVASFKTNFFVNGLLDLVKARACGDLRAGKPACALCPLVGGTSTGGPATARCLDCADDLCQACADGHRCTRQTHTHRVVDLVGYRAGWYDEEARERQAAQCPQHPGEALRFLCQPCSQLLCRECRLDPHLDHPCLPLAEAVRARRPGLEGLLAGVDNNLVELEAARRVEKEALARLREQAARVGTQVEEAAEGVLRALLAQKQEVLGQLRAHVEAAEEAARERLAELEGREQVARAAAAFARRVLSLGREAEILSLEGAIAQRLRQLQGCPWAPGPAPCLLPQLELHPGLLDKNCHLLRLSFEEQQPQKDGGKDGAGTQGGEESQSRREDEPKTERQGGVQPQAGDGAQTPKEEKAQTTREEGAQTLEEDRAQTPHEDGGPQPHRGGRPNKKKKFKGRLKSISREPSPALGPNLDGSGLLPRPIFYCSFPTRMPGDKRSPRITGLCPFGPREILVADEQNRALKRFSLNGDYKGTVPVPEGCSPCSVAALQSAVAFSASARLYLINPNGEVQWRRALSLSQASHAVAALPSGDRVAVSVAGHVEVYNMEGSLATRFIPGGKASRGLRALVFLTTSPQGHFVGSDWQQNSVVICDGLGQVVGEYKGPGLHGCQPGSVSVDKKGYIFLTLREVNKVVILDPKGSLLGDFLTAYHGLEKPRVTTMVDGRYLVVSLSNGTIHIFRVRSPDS
In words: co-IP; HEK293T co-transfected with pEGFP-TRIM56 and pFlag-3D or pFlag-3D-K220R; undenatured lysate; immunomagnetic beads with anti-EGFP antibody, room temperature 1 h, 10 washes; immunoblotting. On the technique in general: A western blot detects proteins with antibodies after separation by electrophoresis.

For the substance “Flag-3D-K220R (Coxsackievirus B3 (CVB3)) (enzyme)”, the binding entry is “binds”. Next, “Flag-tagged 3D of CVB3 (Coxsackievirus B3 (CVB3)) (enzyme)”: “binds”.
